No constants are given. Whether binding was seen depends on the method and setting. In cells and extracts the contact can be indirect. Some entries that bind do so weakly or less than the wild type.
Biological target: GST H-Ras (UniProt P01112)
Experiment: pull-down; GST pull-down with glutathione sepharose from lysates of HEK 293T cells co-expressing bait and prey; 0.5% NP-40, 150 mM NaCl, 10 mM HEPES; 3-4 hours at 4°C; western blot

Venus-Flag Aurora B (from UniProt Q96GD4 1-344)
binding: binds
